This passage reports binding results from article doi:10.1101/572156.

The chains behind the UniProt entries cited, without tags or fusion partners.
UniProt Q15717: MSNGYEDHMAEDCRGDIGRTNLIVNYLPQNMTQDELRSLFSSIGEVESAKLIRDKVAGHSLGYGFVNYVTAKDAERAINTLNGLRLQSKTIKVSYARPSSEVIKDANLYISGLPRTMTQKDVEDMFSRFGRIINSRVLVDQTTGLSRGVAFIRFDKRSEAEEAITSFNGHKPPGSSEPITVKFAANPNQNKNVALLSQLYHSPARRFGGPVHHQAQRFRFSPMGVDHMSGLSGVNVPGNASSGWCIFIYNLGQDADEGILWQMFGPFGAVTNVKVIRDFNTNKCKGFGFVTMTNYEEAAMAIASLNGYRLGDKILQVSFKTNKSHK

Assay [1] addresses T1, FLAG-tagged DND1 wild-type (full-length human Dead End, 1-353) (human) (UniProt Q8IYX4).
T1 sequence: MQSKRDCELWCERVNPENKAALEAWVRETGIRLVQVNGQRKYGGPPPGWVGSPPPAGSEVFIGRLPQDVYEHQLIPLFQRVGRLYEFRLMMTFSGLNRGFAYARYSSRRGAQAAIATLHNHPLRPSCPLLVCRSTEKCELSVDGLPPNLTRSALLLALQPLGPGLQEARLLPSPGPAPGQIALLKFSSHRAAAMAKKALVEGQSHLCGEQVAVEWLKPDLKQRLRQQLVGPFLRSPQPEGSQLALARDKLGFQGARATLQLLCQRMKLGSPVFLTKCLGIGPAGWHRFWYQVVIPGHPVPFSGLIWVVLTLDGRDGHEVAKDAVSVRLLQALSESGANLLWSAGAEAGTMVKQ
Nature of the assay: co-IP.

In assay [2] the target is T2, FLAG-tagged DND1 R98A (full-length, RRM1 RNP1 RNA binding mutant) (human) (UniProt Q8IYX4).
T2 sequence: T1 sequence with R98A
Nature of the assay: co-IP.

Changes are numbered by the printed parent chain. No constants are given. Whether binding was seen depends on the method and setting. Binding seen in cells or lysates may run through a third protein. Some results given as binding are weak or reduced against the parent protein; the word gives no strength. Sequences can lack the tags named with a protein.

Regarding ELAVL1/HuR (from UniProt Q15717 1-326), the binding result in assay [1] and in assay [2] was “binds” throughout.
